Values quoted from earlier work as cited in patent US20250364101A1, “Dabigatran Dosing” (Closed Loop Medicine Ltd, priority 2023, published 2025).
The name of at least one read-out is uncertain.

Conditions: in vivo

SMILES: [H]/N=C(/N)c1ccc(NCc2nc3cc(C(=O)N(CCC(=O)O)c4ccccn4)ccc3n2C)cc1 [dabigatran]
- effect of Hb on AUC: no effect
- effect of weight on AUC: Weight had no effect on AUC but increase in distribution volume
